Measurements taken from PubChem BioAssay AID540276 (National Center for Advancing Translational Sciences (NCATS), 2011).
“And” between values parts separate entries of the source, which are not always exact repeats. Equal entries are not always repeated. In all, about 300,000 compounds went through this assay and about 5,400 (1.8%) were called active. Inconclusive results, whose numbers are uncertain, are shown with a selection of clear calls. Calls come from the whole dose curve; tested in HEK293 cells. Potencies of inconclusive entries are doubtful fits and often do not repeat.

Assay: qHTS for inhibitors of binding or entry into cells for Marburg Virus
Conditions: Marburg virus pseudotyped entry inhibition, cell reporter; activity change, negative = inhibition: at 37.8 µM (top of the series) unless noted
% is set by controls: 0 for no effect and ±100 for the full control effect; potency is the fitted concentration of half-maximal effect.

| Structure (SMILES) | activity change, negative = inhibition | Potency |
| --- | --- | --- |
| Cc1ccc(NC(=S)NCc2ccc3c(c2)OCO3)cc1C | inactive: -0.508% |  |
| CN(C)CCNc1nc2sc3c(c2c(=O)n1Cc1ccccc1)CCCCC3 |  | active: 10 µM |
| Clc1ccccc1-c1nnc(COc2ccccc2)o1 |  | inconclusive: 20 µM [activator, partial curve, poor fit] |
| CC(C)CNC(=S)N1CCC(c2nc(-c3ccc(F)cc3)no2)CC1 |  | inconclusive: 20 µM [inhibitor, single point] |
| CN1[C@@H]2CC[C@H]1CC(OC(=O)C1C=Nc3ccccc31)C2 (stereo partly specified) |  | inconclusive: 29.1 µM [inhibitor, single point] |
| O=C(C1CC(=O)N(c2ccccc2)C1)N1CCN(c2ccccc2F)CC1 (stereo unspecified) |  | inconclusive: 0.891 µM [inhibitor, full curve] |
| N#Cc1c(/N=C/N2CCCC2)oc(-c2ccccc2)c1-c1ccccc1 |  | inconclusive: 35.5 µM [inhibitor, single point] |
| CCN(CC)C(=O)c1c(C)[nH]c(=S)c(C#N)c1-c1ccco1 | inactive: -4.55% [at 46.1 µM] |  |
| O=C(CNC(=O)c1ccc(Br)cc1)N/N=C/c1ccc[nH]1 |  | inconclusive: 35.5 µM [inhibitor, single point] |
| Cc1cc(C)cc(NC(=S)N(CCN(C)C)Cc2cccs2)c1 |  | inconclusive: 35.5 µM [inhibitor, single point] |
| Cc1ccc(NC(=O)C(=O)Nc2ccccn2)cc1 |  | active: 1.12 µM |
| Cn1c(CNC(=O)Nc2cccc(Cl)c2)nnc1SCc1ccccc1 |  | inconclusive: 7.08 µM [inhibitor, partial curve] |
| CCc1c(C)sc2nc3c(C(=O)N4CCOCC4)cc(C(=O)c4cc(F)ccc4O)cn3c(=O)c12 |  | inconclusive: 14.1 µM [inhibitor, single point] |
| Cc1cc(Cl)ccc1OCCCC(N)=O | inactive: 1.28% |  |
| CCOC(=O)c1oc2ccccc2c1CN1CCN(C)CC1 | inactive: 22.5% |  |
| Cc1cccc(NC2=C/C(=N/S(=O)(=O)c3cccs3)c3ccccc3C2=O)c1 |  | inconclusive: 4.47 µM [inhibitor, full curve, poor fit] |
| CCN1CCN(c2ccc(S(=O)(=O)N3CCCCC3)cc2NC(=O)c2sccc2C)CC1 |  | inconclusive: 10 µM [inhibitor, partial curve, poor fit] |
| CCOc1ccc(S(=O)(=O)N(C)c2ccc(OCC(=O)NCC3CCCO3)cc2)cc1 (stereo unspecified) |  | inconclusive: 5.62 µM [inhibitor, single point] |
| CCN(Cc1ccncc1)C(=S)Nc1c(C)cccc1C | inactive: 8.86% |  |
| O=C(Nc1ccc(Cl)cc1)C1(S(=O)(=O)c2ccccc2)CC1 | inactive: 18.6% |  |
| CN1CCN(c2ccc(Cl)cc2NC(=O)c2cccc(S(=O)(=O)N(C)C)c2)CC1 |  | inactive and inconclusive: 23.1 µM [inhibitor, partial curve, poor fit] |
| CSc1ccc(-c2nc(CN(C)C3CCOC3)c(C)o2)cc1 (stereo unspecified) |  | inconclusive: 12.6 µM [activator, partial curve, poor fit] |

Molecules from the list above that have nitrogen in an aromatic ring (ten):

| Structure (SMILES) | activity change, negative = inhibition | Potency |
| --- | --- | --- |
| CN(C)CCNc1nc2sc3c(c2c(=O)n1Cc1ccccc1)CCCCC3 |  | active: 10 µM |
| Clc1ccccc1-c1nnc(COc2ccccc2)o1 |  | inconclusive: 20 µM [activator, partial curve, poor fit] |
| CC(C)CNC(=S)N1CCC(c2nc(-c3ccc(F)cc3)no2)CC1 |  | inconclusive: 20 µM [inhibitor, single point] |
| CCN(CC)C(=O)c1c(C)[nH]c(=S)c(C#N)c1-c1ccco1 | inactive: -4.55% [at 46.1 µM] |  |
| O=C(CNC(=O)c1ccc(Br)cc1)N/N=C/c1ccc[nH]1 |  | inconclusive: 35.5 µM [inhibitor, single point] |
| Cc1ccc(NC(=O)C(=O)Nc2ccccn2)cc1 |  | active: 1.12 µM |
| Cn1c(CNC(=O)Nc2cccc(Cl)c2)nnc1SCc1ccccc1 |  | inconclusive: 7.08 µM [inhibitor, partial curve] |
| CCc1c(C)sc2nc3c(C(=O)N4CCOCC4)cc(C(=O)c4cc(F)ccc4O)cn3c(=O)c12 |  | inconclusive: 14.1 µM [inhibitor, single point] |
| CCN(Cc1ccncc1)C(=S)Nc1c(C)cccc1C | inactive: 8.86% |  |
| CSc1ccc(-c2nc(CN(C)C3CCOC3)c(C)o2)cc1 (stereo unspecified) |  | inconclusive: 12.6 µM [activator, partial curve, poor fit] |

(list continues)

| Structure (SMILES) | activity change, negative = inhibition | Potency |
| --- | --- | --- |
| O=C(CCC1CCCC1)N1CCN(S(=O)(=O)Cc2ccccc2)CC1 |  | inconclusive: 23.1 µM [inhibitor, partial curve, poor fit] |
| O=C(O)C(=O)/C(=C\c1ccsc1)c1ccc2ccccc2n1 |  | inconclusive: 0.708 µM [activator, partial curve, poor fit] |
| CN(C)CCCN(C(=O)c1ccc(C(=O)c2ccccc2)cc1)c1nc2cc3c(cc2s1)OCCO3 |  | inconclusive: 11.2 µM [inhibitor, partial curve, poor fit] |
| O=C(CSc1ncnc2ccccc12)NC1CCS(=O)(=O)C1 (stereo unspecified) |  | inconclusive: 0.316 µM [inhibitor, full curve, poor fit] |
| COc1cccc(-c2cc(C(=O)N3CCc4ccccc4C3)no2)c1 | inactive: 25% |  |
| COc1cc(OC)c(C2CC(=O)N3CN(c4ccccc4C)CSC3=C2C#N)cc1OC (stereo unspecified) | inactive: 0.336% |  |
| C#CC(CO)N(CCN(Cc1ccccc1)C(C#C)CO)Cc1ccccc1 (stereo unspecified) |  | inconclusive: 35.5 µM [inhibitor, single point] |
| Cc1ccc(CSc2ncnc3c2cnn3-c2ccc(C)cc2)cc1 |  | inconclusive: 5.62 µM [activator, single point] |
| COc1cc([N+](=O)[O-])ccc1NC(=O)CC1SC(=Nc2ccc(F)cc2)N(CCC2=CCCCC2)C1=O (stereo unspecified) |  | inconclusive: 7.94 µM [inhibitor, partial curve, poor fit] |
| Cc1ccc(CN(C(=O)Cn2nnc3ccccc32)C(C(=O)NCc2ccco2)c2cccs2)cc1 (stereo unspecified) |  | inconclusive: 15.8 µM [inhibitor, single point] |
| COc1ccc(S(=O)(=O)N2CCC(C(=O)Nc3ccccc3)CC2)cc1OC | inactive: 19.9% [at 46.1 µM] |  |
| COC(=O)c1ccccc1NC(=O)CSCC(=O)Nc1ccccc1OC |  | inconclusive: 20.6 µM [inhibitor, single point] |
| CCOC(=O)C1=C(C)N(c2ccc(C)c(C)c2)C(=O)/C1=C\c1ccco1 | inactive: -24.8% |  |
| Cc1cc(C(F)(F)F)cc(NNC(=O)NC(=O)c2ccc(Cl)cc2)n1 |  | inconclusive: 20 µM [inhibitor, partial curve, poor fit] |
| CCN(CC)c1ccc(/C=N/NC(=O)CNC(=O)C2COc3ccccc3O2)c(O)c1 (stereo unspecified) |  | active: 4.47 µM |
| COCc1ccc(C(=O)N2CCCC(CCC(=O)NCc3ccccc3F)C2)o1 (stereo unspecified) |  | active: 5.62 µM |
| COCCn1c(-c2ccc(OC)cc2)nc2ccccc21 |  | inconclusive: 2.31 µM [activator, single point] |
| COc1ccc(CN(C)Cc2nc(Cc3ccccc3Cl)no2)cc1OC |  | inconclusive: 17.8 µM [inhibitor, single point] |
| O=C(c1cccc(Cl)c1)N1c2nc(-c3ccco3)nn2C2(CCCCC2)[C@@H]2CCCC[C@@H]21 | inactive: -11.7% [at 46.1 µM] |  |
| CN(C)C(=O)c1cc(C(=O)c2ccc(F)cc2C(F)(F)F)c[nH]1 |  | inconclusive: 11.2 µM [inhibitor, partial curve, poor fit] |
| CC(C)(C)OC(=O)N1CCC[C@H]1C(=O)Nc1ccc(C#N)cc1 |  | inconclusive: 2.82 µM [inhibitor, single point] |
| CCCCn1c(N)c(N(CCOC)C(=O)C2CCN(S(=O)(=O)c3ccc(Cl)cc3)CC2)c(=O)[nH]c1=O |  | inconclusive: 0.316 µM [activator, full curve, poor fit] |

| Structure (SMILES) | activity change, negative = inhibition | Potency |
| --- | --- | --- |
| COc1ccc2ncc(S(=O)(=O)c3ccccc3)c(N3CCN(c4ccccc4)CC3)c2c1 |  | inconclusive: 32.6 µM [inhibitor, partial curve, poor fit] |
| CC(C)CO/N=C1/C[C@@H](O)[C@@H](O)[C@@H]2[C@@H]3C(=O)N(Cc4ccc5c(c4)OCO5)C(=O)[C@H]3CC[C@@H]12 |  | inconclusive: 0.841 µM [activator, full curve, poor fit] |
| COc1cc([N+](=O)[O-])ccc1NC(=S)Nc1cccc(C(=O)O)c1 | inactive: 8.35% |  |
| CCCCOc1ccc(C(=O)N/N=C/c2cn[nH]c2-c2ccc(OC)c(OC)c2)cc1 |  | inconclusive: 1 µM [inhibitor, single point] |
| CC(C)(C)NS(=O)(=O)c1ccc(Oc2ncc(C(F)(F)F)cc2Cl)cc1 |  | inconclusive: 23.1 µM [inhibitor, single point] |
| CCOC(=O)C1=C(C)N=c2s/c(=C\c3ccc(C(=O)O)cc3)c(=O)n2C1c1ccc(OC)cc1OC (stereo unspecified) |  | inconclusive: 7.94 µM [inhibitor, partial curve, poor fit] |
| CSc1nnc2c3ccccc3n(CCc3ccccc3)c2n1 |  | active: 0.58 µM |
| CCn1c(=O)c(C(=O)CN2CCN(Cc3ccc4c(c3)OCO4)CC2)c(N)n(Cc2ccccc2)c1=O |  | inconclusive: 12.6 µM [inhibitor, partial curve, poor fit] |
| CCCc1cc2c(OC(=O)CC)c(-c3ccc(C(=O)OCC)o3)c(=O)oc2cc1OC |  | inconclusive: 35.5 µM [inhibitor, single point] |
| O=C1C(=O)N(c2ccccc2)C(c2ccccc2[N+](=O)[O-])/C1=C(\O)c1ccccc1 (stereo unspecified) | inactive: -8.25% [at 46.1 µM] |  |
| O=C(c1cccs1)N1CCN(c2nnc(-c3ccccc3)c3ccccc23)CC1 |  | inconclusive: 20 µM [inhibitor, single point] |
| CCOC(=O)c1c(NC(=O)CN2C(=O)NC(C)(c3ccc(OC(F)F)cc3)C2=O)sc(C)c1C (stereo unspecified) |  | inconclusive: 35.5 µM [inhibitor, single point] |
| CCOc1cc(C(=O)OC(C(=O)NC(=O)NC)c2ccccc2)ccc1OCC(=O)N1CCOCC1 (stereo unspecified) |  | inconclusive: 2 µM [inhibitor, partial curve, poor fit] |
| Cc1cc(Cl)ccc1OCC(=O)Nc1ccccc1N1CCOCC1 |  | inconclusive: 35.5 µM [inhibitor, partial curve, poor fit] |
| CCOC(=O)c1cnc2c(C)cccc2c1NCc1ccco1 | inactive: -12.8% |  |
| CCCn1c(SCC(=O)c2cc(OC)ccc2OC)nc2c1c(=O)n(C)c(=O)n2C |  | inactive |
| COc1ccc(S(=O)(=O)Nc2ccc3oc4c(c3c2)CCCC4)cc1 |  | active: 10 µM |
| Cc1cc(OCC(=O)Nc2ccc(F)c(F)c2)nc(C(C)C)n1 | inactive: 12.6% |  |
| CCCCNC(=O)CSc1nc2n[nH]c(C)c2c(=N)n1-c1cccc(Cl)c1C |  | inconclusive: 23.1 µM [inhibitor, single point] |
| Cc1cccc(-c2noc(-c3cccnc3NCc3ccc(Cl)cc3)n2)c1 | inactive: 4.04% [at 46.1 µM] |  |
| CCn1c(SCC(=O)c2ccccc2)nnc1-c1cc2cc(Br)ccc2o1 |  | inconclusive: 35.5 µM [inhibitor, single point] |
| CC(C)CC(NC(=O)C1CCC(C)CC1)C(=O)Nc1ccccc1F (stereo unspecified) |  | inconclusive: 1.26 µM [inhibitor, partial curve, poor fit] |

Whole records, looked up by structure:
CCn1c(SCC(=O)c2ccccc2)nnc1-c1cc2cc(Br)ccc2o1 as listed: Potency: inconclusive: 35.5 µM [inhibitor, single point]
CCOC(=O)c1c(NC(=O)CN2C(=O)NC(C)(c3ccc(OC(F)F)cc3)C2=O)sc(C)c1C (stereo unspecified) as listed: Potency: inconclusive: 35.5 µM [inhibitor, single point]
